Results published in paper PMC8864472.
No constants are given. Whether binding was seen depends on the method and setting. In cells and extracts the contact can be indirect. Here binding means that the protein was enriched with, or labelled near, the bait; the list need not be complete.

Chains of the proteins cited; added tags and fusions are not shown. Residues count along the entry.
UniProt Q9NYU2, residues 43-1555: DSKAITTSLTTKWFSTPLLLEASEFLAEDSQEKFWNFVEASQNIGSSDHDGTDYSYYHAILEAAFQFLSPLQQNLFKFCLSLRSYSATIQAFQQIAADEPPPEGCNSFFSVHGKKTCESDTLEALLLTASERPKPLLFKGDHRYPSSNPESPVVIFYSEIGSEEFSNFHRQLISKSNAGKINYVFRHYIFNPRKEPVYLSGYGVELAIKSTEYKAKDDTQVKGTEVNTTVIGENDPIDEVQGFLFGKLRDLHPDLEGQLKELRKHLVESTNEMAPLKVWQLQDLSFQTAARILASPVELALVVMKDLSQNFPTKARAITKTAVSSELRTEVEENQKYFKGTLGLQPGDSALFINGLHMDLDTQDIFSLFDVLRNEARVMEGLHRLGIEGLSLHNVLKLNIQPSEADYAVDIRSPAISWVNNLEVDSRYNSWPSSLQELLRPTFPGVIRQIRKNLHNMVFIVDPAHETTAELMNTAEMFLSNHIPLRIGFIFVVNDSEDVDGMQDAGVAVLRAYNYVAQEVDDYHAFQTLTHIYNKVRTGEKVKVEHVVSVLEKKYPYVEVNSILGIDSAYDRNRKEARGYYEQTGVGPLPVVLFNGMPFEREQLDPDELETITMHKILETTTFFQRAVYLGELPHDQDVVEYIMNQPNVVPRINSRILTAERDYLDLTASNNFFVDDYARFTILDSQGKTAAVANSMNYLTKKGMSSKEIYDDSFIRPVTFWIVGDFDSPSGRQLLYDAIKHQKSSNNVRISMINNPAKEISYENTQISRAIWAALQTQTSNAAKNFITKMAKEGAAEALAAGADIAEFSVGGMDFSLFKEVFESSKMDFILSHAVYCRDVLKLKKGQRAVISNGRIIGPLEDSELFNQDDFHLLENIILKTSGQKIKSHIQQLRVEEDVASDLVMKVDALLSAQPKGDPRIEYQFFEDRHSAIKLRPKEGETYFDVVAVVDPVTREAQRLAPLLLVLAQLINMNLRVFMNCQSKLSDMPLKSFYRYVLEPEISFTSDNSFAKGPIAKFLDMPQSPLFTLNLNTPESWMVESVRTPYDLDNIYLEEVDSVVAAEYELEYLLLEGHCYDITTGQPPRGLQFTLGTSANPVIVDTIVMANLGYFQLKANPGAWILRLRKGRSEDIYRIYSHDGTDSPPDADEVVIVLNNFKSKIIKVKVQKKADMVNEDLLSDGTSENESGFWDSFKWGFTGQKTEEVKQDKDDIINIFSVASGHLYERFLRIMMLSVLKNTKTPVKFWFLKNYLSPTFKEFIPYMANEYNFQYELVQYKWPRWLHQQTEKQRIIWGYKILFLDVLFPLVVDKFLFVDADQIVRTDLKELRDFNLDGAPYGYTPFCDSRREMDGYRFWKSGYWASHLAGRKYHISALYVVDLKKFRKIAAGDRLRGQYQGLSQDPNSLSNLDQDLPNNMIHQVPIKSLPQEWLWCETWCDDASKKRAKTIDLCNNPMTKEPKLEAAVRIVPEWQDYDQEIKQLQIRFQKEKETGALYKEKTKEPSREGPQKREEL
UniProt P07237, residues 18-508: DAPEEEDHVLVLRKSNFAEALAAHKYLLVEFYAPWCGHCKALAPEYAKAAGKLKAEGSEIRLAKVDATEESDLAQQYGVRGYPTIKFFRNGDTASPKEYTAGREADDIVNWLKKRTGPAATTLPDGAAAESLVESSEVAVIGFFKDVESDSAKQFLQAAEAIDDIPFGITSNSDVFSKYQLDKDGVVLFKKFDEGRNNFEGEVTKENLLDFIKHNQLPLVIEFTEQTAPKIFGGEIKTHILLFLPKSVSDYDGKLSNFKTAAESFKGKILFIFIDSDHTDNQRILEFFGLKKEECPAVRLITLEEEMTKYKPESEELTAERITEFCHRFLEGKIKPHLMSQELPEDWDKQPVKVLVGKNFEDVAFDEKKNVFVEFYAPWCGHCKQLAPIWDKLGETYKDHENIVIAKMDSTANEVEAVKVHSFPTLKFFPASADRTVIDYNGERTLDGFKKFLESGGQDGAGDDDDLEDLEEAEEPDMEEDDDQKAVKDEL

T1: PLD3 (human) (UniProt Q8IV08)
T1 sequence: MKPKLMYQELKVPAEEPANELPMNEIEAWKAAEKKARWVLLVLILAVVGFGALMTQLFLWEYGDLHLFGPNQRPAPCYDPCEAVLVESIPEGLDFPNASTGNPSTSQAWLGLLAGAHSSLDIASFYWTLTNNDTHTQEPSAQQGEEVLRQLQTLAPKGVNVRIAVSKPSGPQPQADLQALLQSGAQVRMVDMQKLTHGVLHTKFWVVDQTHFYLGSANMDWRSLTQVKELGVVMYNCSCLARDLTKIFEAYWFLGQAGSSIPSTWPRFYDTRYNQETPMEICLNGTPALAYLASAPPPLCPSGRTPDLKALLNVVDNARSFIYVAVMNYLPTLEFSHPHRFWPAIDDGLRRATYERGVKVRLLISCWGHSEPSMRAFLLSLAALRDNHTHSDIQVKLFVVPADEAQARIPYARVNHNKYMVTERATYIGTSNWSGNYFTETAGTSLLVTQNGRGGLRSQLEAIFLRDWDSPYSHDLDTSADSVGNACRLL

T2: PLD6 (human) (UniProt Q8N2A8)
T2 sequence: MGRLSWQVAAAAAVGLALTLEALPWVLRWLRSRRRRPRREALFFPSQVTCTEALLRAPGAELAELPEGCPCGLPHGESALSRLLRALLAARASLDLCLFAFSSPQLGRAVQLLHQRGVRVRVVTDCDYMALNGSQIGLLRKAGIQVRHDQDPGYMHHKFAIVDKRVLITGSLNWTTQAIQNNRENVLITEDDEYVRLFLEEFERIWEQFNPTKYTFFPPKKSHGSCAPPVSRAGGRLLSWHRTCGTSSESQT

T3: PLD4 (human) (UniProt Q96BZ4)
T3 sequence: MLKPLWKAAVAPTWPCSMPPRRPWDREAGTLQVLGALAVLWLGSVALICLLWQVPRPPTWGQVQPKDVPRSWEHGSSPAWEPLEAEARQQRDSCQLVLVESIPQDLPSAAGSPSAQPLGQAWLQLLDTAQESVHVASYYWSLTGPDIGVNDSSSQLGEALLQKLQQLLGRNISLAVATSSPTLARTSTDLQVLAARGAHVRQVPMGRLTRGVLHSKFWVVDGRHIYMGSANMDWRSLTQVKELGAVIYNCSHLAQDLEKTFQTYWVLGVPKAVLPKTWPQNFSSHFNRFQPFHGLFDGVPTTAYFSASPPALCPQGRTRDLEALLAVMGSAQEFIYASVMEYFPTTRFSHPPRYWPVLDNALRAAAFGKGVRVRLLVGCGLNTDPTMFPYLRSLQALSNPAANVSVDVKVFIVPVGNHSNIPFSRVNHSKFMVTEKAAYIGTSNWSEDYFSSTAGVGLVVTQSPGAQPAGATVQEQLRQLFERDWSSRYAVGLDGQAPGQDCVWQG


What was measured:
Test in all cases: affinity purification with mass spectrometry; TAP-MS: C-terminal SFB-tagged PLD bait from stable HEK293A cells, lysed in NETN buffer (100 mM NaCl, 20 mM Tris-HCl pH 8.0, 0.5 mM EDTA, 0.5% Nonidet P-40), streptavidin beads, biotin elution, S protein beads, 4 °C; HCIP: SAINT score at least 0.8 and raw spectra count at least 2
PLD3 (human) = molecular target: T1, PLD3 (human)
PLD6 (human) = molecular target: T2, PLD6 (human)
PLD4 (human) = molecular target: T3, PLD4 (human)

| Molecule | binding (PLD3 (human)) | binding (PLD6 (human)) | binding (PLD4 (human)) |
| --- | --- | --- | --- |
| UGGT1 (from UniProt Q9NYU2 43-1555) | binds | binds | binds |
| P4HB (from UniProt P07237 18-508) | binds | binds | binds |
| CHPF2 (protein, UniProt Q9P2E5 1-772) MRLSSLLALLRPALPLILGLSLGCSLSLLRVSWIQGEGEDPCVEAVGERGGPQNPDSRARLDQSDEDFKPRIVPYYRDPNKPYKKVLRTRYIQTELGSRERLLVAVLTSRATLSTLAVAVNRTVAHHFPRLLYFTGQRGARAPAGMQVVSHGDERPAWLMSETLRHLHTHFGADYDWFFIMQDDTYVQAPRLAALAGHLSINQDLYLGRAEEFIGAGEQARYCHGGFGYLLSRSLLLRLRPHLDGCRGDILSARPDEWLGRCLIDSLGVGCVSQHQGQQYRSFELAKNRDPEKEGSSAFLSAFAVHPVSEGTLMYRLHKRFSALELERAYSEIEQLQAQIRNLTVLTPEGEAGLSWPVGLPAPFTPHSRFEVLGWDYFTEQHTFSCADGAPKCPLQGASRADVGDALETALEQLNRRYQPRLRFQKQRLLNGYRRFDPARGMEYTLDLLLECVTQRGHRRALARRVSLLRPLSRVEILPMPYVTEATRVQLVLPLLVAEAAAAPAFLEAFAANVLEPREHALLTLLLVYGPREGGRGAPDPFLGVKAAAAELERRYPGTRLAWLAVRAEAPSQVRLMDVVSKKHPVDTLFFLTTVWTRPGPEVLNRCRMNAISGWQAFFPVHFQEFNPALSPQRSPPGPPGAGPDPPSPPGADPSRGAPIGGRFDRQASAEGCFYNADYLAARARLAGELAGQEEEEALEGLEVMDVFLRFSGLHLFRAVEPGLVQKFSLRDCSPRLSEELYHRCRLSNLEGLGGRAQLAMALFEQEQANST | binds | binds | binds |
| ACOT9 (protein, UniProt Q9Y305 22-439) LTQGPQNPKKQGIFHIHEVRDKLREIVGASTNWRDHVKAMEERKLLHSFLAKSQDGLPPRRMKDSYIEVLLPLGSEPELREKYLTVQNTVRFGRILEDLDSLGVLICYMHNKIHSAKMSPLSIVTALVDKIDMCKKSLSPEQDIKFSGHVSWVGKTSMEVKMQMFQLHGDEFCPVLDATFVMVARDSENKGPAFVNPLIPESPEEEELFRQGELNKGRRIAFSSTSLLKMAPSAEERTTIHEMFLSTLDPKTISFRSRVLPSNAVWMENSKLKSLEICHPQERNIFNRIFGGFLMRKAYELAWATACSFGGSRPFVVAVDDIMFQKPVEVGSLLFLSSQVCFTQNNYIQVRVHSEVASLQEKQHTTTNVFHFTFMSEKEVPLVFPKTYGESMLYLDGQRHFNSMSGPATLRKDYLVEP |  | binds |  |
| OS9 (protein, UniProt Q13438 26-667) GGVGSLNLEELSEMRYGIEILPLPVMGGQSQSSDVVIVSSKYKQRYECRLPAGAIHFQREREEETPAYQGPGIPELLSPMRDAPCLLKTKDWWTYEFCYGRHIQQYHMEDSEIKGEVLYLGYYQSAFDWDDETAKASKQHRLKRYHSQTYGNGSKCDLNGRPREAEVRFLCDEGAGISGDYIDRVDEPLSCSYVLTIRTPRLCPHPLLRPPPSAAPQAILCHPSLQPEEYMAYVQRQADSKQYGDKIIEELQDLGPQVWSETKSGVAPQKMAGASPTKDDSKDSDFWKMLNEPEDQAPGGEEVPAEEQDPSPEAADSASGAPNDFQNNVQVKVIRSPADLIRFIEELKGGTKKGKPNIGQEQPVDDAAEVPQREPEKERGDPERQREMEEEEDEDEDEDEDEDERQLLGEFEKELEGILLPSDRDRLRSEVKAGMERELENIIQETEKELDPDGLKKESERDRAMLALTSTLNKLIKRLEEKQSPELVKKHKKKRVVPKKPPPSPQPTEEDPEHRVRVRVTKLRLGGPNQDLTVLEMKRENPQLKQIEGLVKELLEREGLTAAGKIEIKIVRPWAEGTEEGARWLTDEDTRNLKEIFFNILVPGAEEAQKERQRQKELESNYRRVWGSPGGEGTGDLDEFDF | binds | binds | binds |
| GANAB (protein, UniProt Q14697 29-944) ITLAVDRSNFKTCEESSFCKRQRSIRPGLSPYRALLDSLQLGPDSLTVHLIHEVTKVLLVLELQGLQKNMTRFRIDELEPRRPRYRVPDVLVADPPIARLSVSGRDENSVELTMAEGPYKIILTARPFRLDLLEDRSLLLSVNARGLLEFEHQRAPRVSQGSKDPAEGDGAQPEETPRDGDKPEETQGKAEKDEPGAWEETFKTHSDSKPYGPMSVGLDFSLPGMEHVYGIPEHADNLRLKVTEGGEPYRLYNLDVFQYELYNPMALYGSVPVLLAHNPHRDLGIFWLNAAETWVDISSNTAGKTLFGKMMDYLQGSGETPQTDVRWMSETGIIDVFLLLGPSISDVFRQYASLTGTQALPPLFSLGYHQSRWNYRDEADVLEVDQGFDDHNLPCDVIWLDIEHADGKRYFTWDPSRFPQPRTMLERLASKRRKLVAIVDPHIKVDSGYRVHEELRNLGLYVKTRDGSDYEGWCWPGSAGYPDFTNPTMRAWWANMFSYDNYEGSAPNLFVWNDMNEPSVFNGPEVTMLKDAQHYGGWEHRDVHNIYGLYVHMATADGLRQRSGGMERPFVLARAFFAGSQRFGAVWTGDNTAEWDHLKISIPMCLSLGLVGLSFCGADVGGFFKNPEPELLVRWYQMGAYQPFFRAHAHLDTGRREPWLLPSQHNDIIRDALGQRYSLLPFWYTLLYQAHREGIPVMRPLWVQYPQDVTTFNIDDQYLLGDALLVHPVSDSGAHGVQVYLPGQGEVWYDIQSYQKHHGPQTLYLPVTLSSIPVFQRGGTIVPRWMRVRRSSECMKDDPITLFVALSPQGTAQGELFLDDGHTFNYQTRQEFLLRRFSFSGNTLVSSSADPEGHFETPIWIERVVIIGAGKPAAVVLQTKGSPESRLSFQHDPETSVLVLRKPGINVASDWSIHLR | binds | binds | binds |
| HYOU1 (protein, UniProt Q9Y4L1 33-999) LAVMSVDLGSESMKVAIVKPGVPMEIVLNKESRRKTPVIVTLKENERFFGDSAASMAIKNPKATLRYFQHLLGKQADNPHVALYQARFPEHELTFDPQRQTVHFQISSQLQFSPEEVLGMVLNYSRSLAEDFAEQPIKDAVITVPVFFNQAERRAVLQAARMAGLKVLQLINDNTATALSYGVFRRKDINTTAQNIMFYDMGSGSTVCTIVTYQMVKTKEAGMQPQLQIRGVGFDRTLGGLEMELRLRERLAGLFNEQRKGQRAKDVRENPRAMAKLLREANRLKTVLSANADHMAQIEGLMDDVDFKAKVTRVEFEELCADLFERVPGPVQQALQSAEMSLDEIEQVILVGGATRVPRVQEVLLKAVGKEELGKNINADEAAAMGAVYQAAALSKAFKVKPFVVRDAVVYPILVEFTREVEEEPGIHSLKHNKRVLFSRMGPYPQRKVITFNRYSHDFNFHINYGDLGFLGPEDLRVFGSQNLTTVKLKGVGDSFKKYPDYESKGIKAHFNLDESGVLSLDRVESVFETLVEDSAEEESTLTKLGNTISSLFGGGTTPDAKENGTDTVQEEEESPAEGSKDEPGEQVELKEEAEAPVEDGSQPPPPEPKGDATPEGEKATEKENGDKSEAQKPSEKAEAGPEGVAPAPEGEKKQKPARKRRMVEEIGVELVVLDLPDLPEDKLAQSVQKLQDLTLRDLEKQEREKAANSLEAFIFETQDKLYQPEYQEVSTEEQREEISGKLSAASTWLEDEGVGATTVMLKEKLAELRKLCQGLFFRVEERKKWPERLSALDNLLNHSSMFLKGARLIPEMDQIFTEVEMTTLEKVINETWAWKNATLAEQAKLPATEKPVLLSKDIEAKMMALDREVQYLLNKAKFTKPRPRPKDKNGTRAEPPLNASASDQGEKVIPPAGQTEDAEPISEPEKVETGSEPGDTEPLELGGPGAEPEQKEQSTGQKRPLKNDEL | binds | binds | binds |
